Test results taken from PubChem BioAssay AID602313 (National Center for Advancing Translational Sciences (NCATS), 2012).
The whole screen tested about 390,000 compounds, of which about 760 (0.19%) were called active. The shares of active, inactive and inconclusive entries below differ from those in the screen. Calls come from the whole dose curve; as a rule, active = well fitted inhibition curve with a large enough effect; inconclusive = small, poorly fitted or top-dose-only effect; inactive = flat fitted curve, though single readings scatter. A potency beside an inconclusive call is a rough fit, not a confirmed value.

Experiment: qHTS for Inhibitors of Vif-A3F Interactions: qHTS; note: nearly all actives have a fitted effect of over 65% in size
Settings: HeLa A3F-eYFP + Vif (tagged APOBEC3F with the HIV-1 protein that degrades it), YFP fluorescence increase; series mostly up to 46.1 µM
Method in brief: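 HeLa cells stably expressing A3F-eYFP plus Vif, plated and incubated overnight at 37 deg C, then exposed to compounds overnight at 37 deg C. Blocked degradation read as raised yellow fluorescence (Ex 488/Em 500-530).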
Potency is the fitted concentration of half-maximal effect.

SMILES | Potency
c1ccc(N=Nc2ccc3cccccc2-3)cc1 | inconclusive: 5.62 µM [inhibitor, single point]
COCCCNC(=O)CC1C(=O)N(Cc2ccccc2)C(C)c2nc3ccccc3n21 (centres undefined) | inconclusive: 3.55 µM [inhibitor, single point]
CCCCCCCCn1c(=O)c(C(=O)OC)c(N)c2ccccc21 | inactive
CC(O)(Cc1ccccn1)Cc1ccccn1 | inconclusive: 35.5 µM [inhibitor, single point]
O=C(COc1ccccc1)N1CCN(S(=O)(=O)c2ccc(Br)cc2)CC1 | inactive
COc1ccc(NC(=O)N2CCN3CCCCC3C2)cc1OC (centres undefined) | inactive
COc1ccccc1/C=C\C=N\n1c(-c2ccc(Cl)cc2)n[nH]c1=S | inconclusive: 20 µM [inhibitor, partial curve, poor fit]
CC1(C)CC(c2nc(-c3ccc(Br)cc3)cs2)CCS1 (centres undefined) | inactive
O=C(CCCN1C(=O)/C(=C/c2cccs2)SC1=S)NNC(=O)c1ccc(F)cc1 | inconclusive: 22.4 µM [inhibitor, single point]
O=C(/C(=N/N=C/c1ccc(O)c(O)c1O)c1ccccc1)c1ccccc1 | inconclusive: 35.5 µM [inhibitor, single point]
COc1ccc(C2C(C(=O)Nc3ccccc3)=C(C)Nc3nc(-c4ccccc4Cl)nn32)cc1OC (centres undefined) | inactive
Cc1ccc(C)c(NC(=O)c2cc(-c3cc(C)c(C)cc3O)n[nH]2)c1 | inconclusive: 35.5 µM [inhibitor, single point]
Cc1ccccc1-c1ocnc1C(=O)Nc1ccccc1NC(=O)c1ccccn1 | inconclusive: 35.5 µM [inhibitor, single point]
O=C(Nc1ccc(S(=O)(=O)Nc2nccs2)cc1)C1CC(=O)N(c2ccccc2)C1 (centres undefined) | inconclusive: 1.26 µM [inhibitor, partial curve, poor fit]
Cc1cccc(N2C(=O)C=CC2=O)c1 | inactive
Cc1ccc(-n2cnc3cc(C(=O)NCc4ccccc4Cl)ccc32)c(C)c1 | inactive
Cc1ccc2nc(N3CCN(c4ccccc4F)CC3)c3nnnn3c2c1 | inactive
CC(Sc1ccc2nnc(-c3ccc(F)cc3)n2n1)C(=O)O (centres undefined) | inactive
OC(COc1cccc2ccccc12)CN1CCN(c2cccc(Cl)c2)CC1 (centres undefined) | inactive
CNC(=O)CO/N=C/c1ccc(N(C)C)cc1 | inconclusive: 2.82 µM [inhibitor, single point]
Cc1ccccc1NC(=S)N(Cc1ccccn1)Cc1ccccc1Cl | inconclusive: 35.5 µM [inhibitor, single point]
Fc1ccc2nc3[nH]c4ccccc4c3nc2c1 | inconclusive: 10 µM [inhibitor, partial curve, poor fit]
O=C1NN(c2ccc(Br)cc2)C(=O)/C1=C\c1ccc(O)cc1O | inactive

Reprinted at random: two compounds from above.
SMILES | Potency
Cc1cccc(N2C(=O)C=CC2=O)c1 | inactive
O=C(Nc1ccc(S(=O)(=O)Nc2nccs2)cc1)C1CC(=O)N(c2ccccc2)C1 (centres undefined) | inconclusive: 1.26 µM [inhibitor, partial curve, poor fit]

Continuation.

SMILES | Potency
Cc1cc(C)c(NC(=O)Cn2c(=O)n(-c3ccc(F)cc3)c(=O)c3c(C)c(C(=O)N(C)C)sc32)c(C)c1 | inactive
O=C(NCCc1ccc(O)c(O)c1)C1COc2ccccc2O1 (centres undefined) | inconclusive: 35.5 µM [inhibitor, single point]
O=C(Nc1ccccc1O)c1cccc(S(=O)(=O)Nc2ccccc2O)c1 | inactive
COc1cccc(/C=C2/SC(=S)N(CC(=O)Nc3nnc(C)s3)C2=O)c1 | inconclusive: 35.5 µM [inhibitor, single point]
COC(=O)c1scc(C)c1NC(=O)C1CCCCC1 | inconclusive: 35.5 µM [inhibitor, single point]
Cc1ccc(OCC(=O)Nc2ccc3c(c2)nc(CCN2CCCC2)n3C)cc1 | inactive
CCSc1ncc(Cl)c(C(=O)Nc2sc3c(c2C(=O)NC)CCCC3)n1 | inconclusive: 3.55 µM [inhibitor, partial curve, poor fit]
O/N=C(/c1ccccc1)c1cc2cc(Br)cc(Br)c2o1 | inconclusive: 35.5 µM [inhibitor, single point]
CCC(C)C1=CC(=Nc2c(C)n(C)n(-c3ccccc3)c2=O)C=C(C(C)CC)C1=O (centres undefined) | inconclusive: 6.31 µM [inhibitor, single point]
O=C(NCCS(=O)(=O)NCc1ccc(F)cc1)c1ccccc1 | inconclusive: 3.98 µM [inhibitor, full curve, poor fit]
Cc1ccc2cc(NC(=O)CC(CC(=O)O)c3ccccc3)ccc2n1 (centres undefined) | inconclusive: 3.55 µM [inhibitor, single point]
Cc1ccccc1Oc1cc(NC(=O)CCCn2nc(C)c([N+](=O)[O-])c2C)cc([N+](=O)[O-])c1 | inconclusive: 20 µM [inhibitor, partial curve, poor fit]
O=C(COC(=O)c1cccc(C(=O)OCC(=O)c2ccc(Br)cc2)n1)c1ccc(Br)cc1 | inconclusive: 3.16 µM [inhibitor, single point]
C/C(=N\NC(=O)CSCc1ccc([N+](=O)[O-])cc1)c1ccccc1O | inconclusive: 3.98 µM [inhibitor, partial curve, poor fit]
Cc1cccc2sc(NC(=O)C3c4ccccc4Oc4ccccc43)nc12 | inactive
O=C(N/N=C/c1sc(=O)n(-c2ccccc2)c1Cl)c1ccccc1 | inconclusive: 20 µM [inhibitor, partial curve, poor fit]
COc1cc(/C=C2/SC(=S)N(CC(=O)O)C2=O)ccc1OC(=O)c1ccco1 | inconclusive: 5.62 µM [inhibitor, single point]
Cc1coc2cc3oc(=O)c(CCC(=O)NCCCn4ccnc4)c(C)c3cc12 | inactive
Oc1cccc(NC(=S)N=Nc2c(O)[nH]c3ccc(Br)cc23)c1 | inconclusive: 28.2 µM [inhibitor, single point]
O=C(/C=C/c1ccccc1)C1=C(O)C(=O)N(CCO)C1c1ccccc1[N+](=O)[O-] (centres undefined) | inactive
COc1ccc(N=Cc2c(O)c3ccccc3n2C(C)=O)cc1 | active: 12.6 µM
CCCCC(=O)NC(=O)NC(c1ccccc1)c1ccccc1 | inconclusive: 35.5 µM [inhibitor, single point]
CCCCCCc1cc2cc(C(=O)NC)c(=N)oc2cc1O | inconclusive: 31.6 µM [inhibitor, single point]

18 neighbouring records already listed:
SMILES | Potency
COc1ccc(C2C(C(=O)Nc3ccccc3)=C(C)Nc3nc(-c4ccccc4Cl)nn32)cc1OC (centres undefined) | inactive
Cc1ccc(C)c(NC(=O)c2cc(-c3cc(C)c(C)cc3O)n[nH]2)c1 | inconclusive: 35.5 µM [inhibitor, single point]
Cc1ccccc1-c1ocnc1C(=O)Nc1ccccc1NC(=O)c1ccccn1 | inconclusive: 35.5 µM [inhibitor, single point]
O=C(Nc1ccc(S(=O)(=O)Nc2nccs2)cc1)C1CC(=O)N(c2ccccc2)C1 (centres undefined) | inconclusive: 1.26 µM [inhibitor, partial curve, poor fit]
Cc1cccc(N2C(=O)C=CC2=O)c1 | inactive
Cc1ccc(-n2cnc3cc(C(=O)NCc4ccccc4Cl)ccc32)c(C)c1 | inactive
Cc1ccc2nc(N3CCN(c4ccccc4F)CC3)c3nnnn3c2c1 | inactive
CC(Sc1ccc2nnc(-c3ccc(F)cc3)n2n1)C(=O)O (centres undefined) | inactive
OC(COc1cccc2ccccc12)CN1CCN(c2cccc(Cl)c2)CC1 (centres undefined) | inactive
CNC(=O)CO/N=C/c1ccc(N(C)C)cc1 | inconclusive: 2.82 µM [inhibitor, single point]
Cc1ccccc1NC(=S)N(Cc1ccccn1)Cc1ccccc1Cl | inconclusive: 35.5 µM [inhibitor, single point]
Fc1ccc2nc3[nH]c4ccccc4c3nc2c1 | inconclusive: 10 µM [inhibitor, partial curve, poor fit]
O=C1NN(c2ccc(Br)cc2)C(=O)/C1=C\c1ccc(O)cc1O | inactive
Cc1cc(C)c(NC(=O)Cn2c(=O)n(-c3ccc(F)cc3)c(=O)c3c(C)c(C(=O)N(C)C)sc32)c(C)c1 | inactive
O=C(NCCc1ccc(O)c(O)c1)C1COc2ccccc2O1 (centres undefined) | inconclusive: 35.5 µM [inhibitor, single point]
O=C(Nc1ccccc1O)c1cccc(S(=O)(=O)Nc2ccccc2O)c1 | inactive
COc1cccc(/C=C2/SC(=S)N(CC(=O)Nc3nnc(C)s3)C2=O)c1 | inconclusive: 35.5 µM [inhibitor, single point]
COC(=O)c1scc(C)c1NC(=O)C1CCCCC1 | inconclusive: 35.5 µM [inhibitor, single point]

Additional records follow:

SMILES | Potency
CC(C)(C)c1nc(SCC(=O)N2CCCC2)c2ccccc2n1 | inactive
COc1ccc(/C=N/Nc2cc(C)nc3ccc(Br)cc23)cc1 | inconclusive: 6.31 µM [inhibitor, single point]
Cc1ccc(CNC(=O)CCc2c(C)[nH]c(=O)c(C#N)c2C)cc1 | inconclusive: 35.5 µM [inhibitor, single point]
Cc1ccc2[nH]c(=O)c(COC(=O)C3CCCCC3)cc2c1 | inconclusive: 35.5 µM [inhibitor, single point]
COc1ccc(Cl)cc1N1C(=O)CN(Cc2cc(OC)c(OC)c(OC)c2)C1=S | inactive
CNC(=O)C1=C(C)Nc2nc3ccccc3n2C1c1ccc(F)cc1 (centres undefined) | inconclusive: 22.4 µM [inhibitor, single point]
COc1ccc(C(=O)Nc2ccc(NC(=O)Cc3ccccc3)cn2)cc1 | inconclusive: 14.1 µM [inhibitor, single point]
CCCNC(=O)Cn1c(=O)/c(=C/c2ccc(-c3cccc([N+](=O)[O-])c3)o2)s/c1=C\C(=O)C(C)(C)C | inconclusive: 11.2 µM [inhibitor, single point]
COCCN(CCOC)c1ncnc2c1c(-c1ccccc1)cn2-c1ccc(C)c(Cl)c1 | inactive
CC(Oc1ccccc1)C(=O)N(CCC1=CCCCC1)c1c(N)n(Cc2ccccc2)c(=O)[nH]c1=O (centres undefined) | inconclusive: 35.5 µM [inhibitor, single point]
COc1ccc(C(=O)Nc2ccc3nc(C)sc3c2)cc1OC | inactive
CCc1ccc(S(=O)(=O)c2nnn3c2nc(NCCNC(C)=O)c2cc(Cl)ccc23)cc1 | inactive
Cc1ccc(C(C)C)cc1OCC(=O)NC1CCCCCCC1 | inconclusive: 11.2 µM [inhibitor, partial curve, poor fit]
O=C1/C(=C/c2c[nH]c3ccccc23)CCC/C1=C\c1c[nH]c2ccccc12 | active: 22.4 µM
N#Cc1ccccc1S(=O)(=O)N1CCC(C(=O)Nc2cccc(C(=O)NC3CC3)c2)CC1 | inconclusive: 1.12 µM [inhibitor, full curve, poor fit]
COCCNC(=S)N/N=C/c1ccccc1C(=O)O | inactive
COCCCNC(=S)N/N=C/c1cccc(OC)c1O | inconclusive: 0.562 µM [inhibitor, full curve, poor fit]
Cc1oc(C)c2c(=O)ccc3c(c12)OC(N)=C(C#N)C3c1ccc(F)cc1 (centres undefined) | inconclusive: 2.51 µM [inhibitor, full curve, poor fit]
CCn1c2ccccc2c2cc(CN3CCN(Cc4ccccc4C)CC3)ccc21 | inconclusive: 20 µM [inhibitor, single point]
O=C(Nc1ccc(-c2csc(Nc3cccc(C(F)(F)F)c3)n2)cc1)c1cc([N+](=O)[O-])cc(C(F)(F)F)c1 | inconclusive: 35.5 µM [inhibitor, single point]
CC1CCCN(Cc2c(O)ccc3c2O/C(=C\c2ccco2)C3=O)C1 (centres undefined) | inconclusive: 12.6 µM [inhibitor, partial curve, poor fit]
Cc1ccc(C(=O)C[n+]2cc(-c3ccc(C)cc3)n3c2CCCCC3)cc1 | inactive
CCN1CCc2c(sc(NC(=S)NC(=O)c3ccc(Cl)cc3)c2C(N)=O)C1 | inconclusive: 0.562 µM [inhibitor, partial curve, poor fit]
